{"source": "the supplement of paper PMC3334620", "note": "In all, about 33,000 sequences were measured (“E-score (-0.5 to 0.5)”: median about -0.0059, highest 2% from about 0.26 on). This is one part of the list."}
{"molecular_target": "T1, Cin5 (UniProt P40917)", "T1 sequence": "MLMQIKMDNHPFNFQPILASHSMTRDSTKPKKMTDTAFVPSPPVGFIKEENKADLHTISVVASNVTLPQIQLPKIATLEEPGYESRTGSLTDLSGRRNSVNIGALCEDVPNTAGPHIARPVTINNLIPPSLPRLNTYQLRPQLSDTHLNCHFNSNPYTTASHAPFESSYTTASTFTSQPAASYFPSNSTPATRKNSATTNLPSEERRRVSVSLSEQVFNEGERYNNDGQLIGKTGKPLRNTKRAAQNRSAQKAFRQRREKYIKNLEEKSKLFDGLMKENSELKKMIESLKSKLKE", "assay": "PBM E-score (8-mer binding enrichment) (E-score (-0.5 to 0.5)); higher = stronger / more preferred TF binding", "conditions": "protein concentration: 100 nM; construct: GST-full length", "how_it_was_run": "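Masliner-normalised scans of fluorescent anti-GST signal were the basis for scoring. That signal came from GST-tagged yeast transcription factors applied at about 100-200 nM to double-stranded universal all-10-mer Agilent arrays on fresh or once-stripped slides. Each ungapped eight-base word, pooled with its reverse complement, received an E-score from the Universal PBM Analysis Suite.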"}
{"sequence": "ATTCGTGG", "PBM E-score": 0.0484}
{"sequence": "GCCTACAC", "PBM E-score": -0.137}
{"sequence": "AGACCGTG", "PBM E-score": -0.179}
{"sequence": "ACGTGAGC", "PBM E-score": 0.0359}
{"sequence": "ACCCAGGG", "PBM E-score": -0.265}
{"sequence": "TAACATCA", "PBM E-score": 0.124}
{"sequence": "GAATCCGC", "PBM E-score": -0.105}
{"sequence": "TAGGACGA", "PBM E-score": 0.0128}
{"sequence": "CCGACCGC", "PBM E-score": -0.184}
{"sequence": "GTCTGACA", "PBM E-score": 0.0182}
{"sequence": "ACGCGTCA", "PBM E-score": -0.0129}
{"sequence": "CAAACAAC", "PBM E-score": 0.195}
{"sequence": "ATAAACCC", "PBM E-score": 0.138}
{"sequence": "ACTTCTGA", "PBM E-score": 0.0835}
{"sequence": "GTAAGCTA", "PBM E-score": 0.36}
{"sequence": "ACTACCTC", "PBM E-score": -0.0509}
{"sequence": "ACGACCTG", "PBM E-score": -0.194}
{"sequence": "CCCACACA", "PBM E-score": -0.0121}
{"sequence": "TAAGCCGA", "PBM E-score": 0.142}
{"sequence": "AAGTGAGC", "PBM E-score": -0.0453}
{"sequence": "GGGGATGA", "PBM E-score": 0.0252}
{"sequence": "ACTTACCC", "PBM E-score": 0.0873}
{"sequence": "AAGAATCG", "PBM E-score": 0.192}
{"sequence": "GACAACGC", "PBM E-score": 0.0121}
{"sequence": "CCTGATGA", "PBM E-score": 0.107}
{"sequence": "ACTTCGTA", "PBM E-score": 0.0293}
{"sequence": "AGCGTCAG", "PBM E-score": -0.124}
{"sequence": "CTCTTTGA", "PBM E-score": -0.124}
{"sequence": "ACCTCGCG", "PBM E-score": 0.0457}
{"sequence": "ATCAATTG", "PBM E-score": 0.232}
{"sequence": "GCCACCCA", "PBM E-score": -0.0925}
{"sequence": "ATGAAGGA", "PBM E-score": 0.115}
{"sequence": "AACTCCTT", "PBM E-score": 0.0828}
{"sequence": "GAGTCATC", "PBM E-score": 0.053}
{"sequence": "CTGGATGC", "PBM E-score": -0.224}
{"sequence": "CCGTTGCA", "PBM E-score": -0.0494}
{"sequence": "GTTATGAA", "PBM E-score": 0.159}
{"sequence": "CAATTGAA", "PBM E-score": -0.0404}
{"sequence": "ACGTGCAG", "PBM E-score": -0.137}
{"sequence": "ACCTACCG", "PBM E-score": -0.058}
{"sequence": "CGCTGAAG", "PBM E-score": -0.0582}
{"sequence": "AAGCTACT", "PBM E-score": 0.0722}
{"sequence": "AGAGTCCA", "PBM E-score": 0.126}
{"sequence": "ATTCGGTG", "PBM E-score": 0.097}
{"sequence": "CTACCGGC", "PBM E-score": -0.183}
{"sequence": "ACCTTGCG", "PBM E-score": 0.0534}
{"sequence": "CAAAGAAA", "PBM E-score": 0.0585}
{"sequence": "TTCCGGAA", "PBM E-score": 0.248}
{"sequence": "GACTGACA", "PBM E-score": 0.0763}
{"sequence": "GACTCTCC", "PBM E-score": -0.189}
{"sequence": "AAATCCGT", "PBM E-score": 0.0966}
{"sequence": "GACAGAAC", "PBM E-score": 0.113}
{"sequence": "ATAACCAT", "PBM E-score": 0.0547}
{"sequence": "CTGCAAGA", "PBM E-score": 0.0859}
{"sequence": "ACCCCATG", "PBM E-score": 0.184}
{"sequence": "CGTGCTCC", "PBM E-score": -0.111}
{"sequence": "GCTCCATA", "PBM E-score": -0.0548}
{"sequence": "GGGAGTCA", "PBM E-score": -0.169}
{"sequence": "ATTATCGG", "PBM E-score": -0.0594}
{"sequence": "ACCCCGGG", "PBM E-score": -0.158}
{"sequence": "ACTGTACG", "PBM E-score": 0.0324}
{"sequence": "CAAGCCAG", "PBM E-score": -0.0284}
{"sequence": "AGCCTATC", "PBM E-score": -0.0288}
{"sequence": "CAAATGGA", "PBM E-score": -0.0888}
{"sequence": "CGAGCCAG", "PBM E-score": -0.103}
{"sequence": "CCGTACAA", "PBM E-score": 0.00202}
{"sequence": "ACACTGGT", "PBM E-score": -0.0563}
{"sequence": "ATAACGTG", "PBM E-score": 0.0267}
{"sequence": "AATCCACC", "PBM E-score": 0.0897}
{"sequence": "ACAGTTTG", "PBM E-score": 0.0772}
{"sequence": "CAGTTGCG", "PBM E-score": 0.169}
{"sequence": "AAGCTAAA", "PBM E-score": 0.0606}
{"sequence": "AGCGGGCA", "PBM E-score": -0.253}
{"sequence": "ATTTTGAG", "PBM E-score": 0.0727}
{"sequence": "CGGTCACC", "PBM E-score": -0.331}
{"sequence": "TAAGTAAA", "PBM E-score": 0.109}
{"sequence": "AGGAAATG", "PBM E-score": 0.0125}
{"sequence": "AACAGCTC", "PBM E-score": -0.117}
{"sequence": "GCGCCCCA", "PBM E-score": -0.0877}
{"sequence": "AACCGCCT", "PBM E-score": 0.0325}
{"sequence": "AGCAGGTG", "PBM E-score": 0.126}
{"sequence": "ACGATTAT", "PBM E-score": 0.274}
{"sequence": "ATATGAAG", "PBM E-score": 0.00647}
{"sequence": "CACTAGCC", "PBM E-score": -0.0133}
{"sequence": "ATGTGCAA", "PBM E-score": 0.035}
{"sequence": "CACAAAAA", "PBM E-score": 0.177}
